## Primary screen of a compound library

Amino acid sequences for entries named in this document (tags omitted). Residues count along the entry.
UniProt Q4DA54, 1-478: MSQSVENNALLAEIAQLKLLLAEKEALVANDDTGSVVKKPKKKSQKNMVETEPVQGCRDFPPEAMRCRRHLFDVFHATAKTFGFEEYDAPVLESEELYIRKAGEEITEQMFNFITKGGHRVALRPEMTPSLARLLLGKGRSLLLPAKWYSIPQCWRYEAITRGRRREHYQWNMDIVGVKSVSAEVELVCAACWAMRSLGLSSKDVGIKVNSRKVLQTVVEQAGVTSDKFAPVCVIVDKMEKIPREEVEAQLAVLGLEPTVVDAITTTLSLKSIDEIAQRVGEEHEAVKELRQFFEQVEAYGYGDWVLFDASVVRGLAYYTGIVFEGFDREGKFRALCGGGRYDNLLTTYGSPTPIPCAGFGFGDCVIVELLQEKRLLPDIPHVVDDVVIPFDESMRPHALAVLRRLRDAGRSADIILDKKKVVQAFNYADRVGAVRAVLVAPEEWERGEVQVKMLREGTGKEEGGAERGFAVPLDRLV
UniProt P9WFT3, whole entry: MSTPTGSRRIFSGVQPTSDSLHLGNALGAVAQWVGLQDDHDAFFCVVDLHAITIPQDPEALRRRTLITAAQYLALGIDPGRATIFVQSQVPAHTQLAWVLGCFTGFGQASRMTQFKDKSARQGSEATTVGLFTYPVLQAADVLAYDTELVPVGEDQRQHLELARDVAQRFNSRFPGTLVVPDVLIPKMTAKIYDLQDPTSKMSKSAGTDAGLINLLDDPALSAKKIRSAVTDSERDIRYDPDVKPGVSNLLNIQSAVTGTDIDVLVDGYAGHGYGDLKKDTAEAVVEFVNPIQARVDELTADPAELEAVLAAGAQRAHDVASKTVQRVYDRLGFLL
UniProt I6X8D2, whole entry: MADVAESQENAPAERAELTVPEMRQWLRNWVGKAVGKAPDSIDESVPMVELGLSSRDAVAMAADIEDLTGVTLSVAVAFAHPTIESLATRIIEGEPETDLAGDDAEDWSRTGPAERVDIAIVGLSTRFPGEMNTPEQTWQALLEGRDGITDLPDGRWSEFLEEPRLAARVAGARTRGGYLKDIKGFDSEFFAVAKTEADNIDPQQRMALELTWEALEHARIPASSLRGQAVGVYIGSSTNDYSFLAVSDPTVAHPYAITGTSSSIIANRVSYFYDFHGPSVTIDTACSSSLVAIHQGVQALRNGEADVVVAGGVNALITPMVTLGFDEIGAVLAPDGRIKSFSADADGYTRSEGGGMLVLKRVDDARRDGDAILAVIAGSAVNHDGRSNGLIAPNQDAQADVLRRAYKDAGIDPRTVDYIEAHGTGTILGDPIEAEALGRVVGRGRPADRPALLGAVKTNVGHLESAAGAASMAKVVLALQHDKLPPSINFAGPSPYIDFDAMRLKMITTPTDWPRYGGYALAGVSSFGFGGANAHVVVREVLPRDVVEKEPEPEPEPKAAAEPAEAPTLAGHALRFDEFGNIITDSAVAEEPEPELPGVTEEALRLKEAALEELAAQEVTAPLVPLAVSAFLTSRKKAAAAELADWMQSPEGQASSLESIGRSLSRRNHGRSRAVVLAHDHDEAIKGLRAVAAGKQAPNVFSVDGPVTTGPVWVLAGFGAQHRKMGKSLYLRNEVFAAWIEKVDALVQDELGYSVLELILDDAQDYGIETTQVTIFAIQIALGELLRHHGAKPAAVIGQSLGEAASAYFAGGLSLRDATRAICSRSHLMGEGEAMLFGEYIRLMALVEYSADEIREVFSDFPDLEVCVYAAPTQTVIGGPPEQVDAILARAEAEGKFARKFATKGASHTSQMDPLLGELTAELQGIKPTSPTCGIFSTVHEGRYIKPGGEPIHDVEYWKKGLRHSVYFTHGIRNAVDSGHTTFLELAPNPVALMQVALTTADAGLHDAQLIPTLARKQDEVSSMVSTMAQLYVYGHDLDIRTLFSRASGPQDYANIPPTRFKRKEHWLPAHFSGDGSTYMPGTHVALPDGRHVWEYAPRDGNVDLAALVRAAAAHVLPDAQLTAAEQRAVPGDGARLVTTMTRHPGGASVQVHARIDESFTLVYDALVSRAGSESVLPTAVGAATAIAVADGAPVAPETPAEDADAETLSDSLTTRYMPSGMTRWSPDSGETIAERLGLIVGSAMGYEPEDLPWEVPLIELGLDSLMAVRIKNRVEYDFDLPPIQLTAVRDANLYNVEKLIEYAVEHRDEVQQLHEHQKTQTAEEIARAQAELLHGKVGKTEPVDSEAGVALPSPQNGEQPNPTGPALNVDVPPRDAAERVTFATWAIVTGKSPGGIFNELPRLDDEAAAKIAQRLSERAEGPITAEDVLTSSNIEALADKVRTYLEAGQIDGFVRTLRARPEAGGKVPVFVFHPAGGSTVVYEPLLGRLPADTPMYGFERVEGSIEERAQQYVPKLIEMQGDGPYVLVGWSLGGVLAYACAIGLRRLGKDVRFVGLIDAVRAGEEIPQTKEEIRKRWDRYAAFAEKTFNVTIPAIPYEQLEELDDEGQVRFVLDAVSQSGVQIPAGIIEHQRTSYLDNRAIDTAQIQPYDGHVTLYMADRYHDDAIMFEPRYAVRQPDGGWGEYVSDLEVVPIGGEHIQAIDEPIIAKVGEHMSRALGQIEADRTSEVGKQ
UniProt Q8IDJ8, 1-583: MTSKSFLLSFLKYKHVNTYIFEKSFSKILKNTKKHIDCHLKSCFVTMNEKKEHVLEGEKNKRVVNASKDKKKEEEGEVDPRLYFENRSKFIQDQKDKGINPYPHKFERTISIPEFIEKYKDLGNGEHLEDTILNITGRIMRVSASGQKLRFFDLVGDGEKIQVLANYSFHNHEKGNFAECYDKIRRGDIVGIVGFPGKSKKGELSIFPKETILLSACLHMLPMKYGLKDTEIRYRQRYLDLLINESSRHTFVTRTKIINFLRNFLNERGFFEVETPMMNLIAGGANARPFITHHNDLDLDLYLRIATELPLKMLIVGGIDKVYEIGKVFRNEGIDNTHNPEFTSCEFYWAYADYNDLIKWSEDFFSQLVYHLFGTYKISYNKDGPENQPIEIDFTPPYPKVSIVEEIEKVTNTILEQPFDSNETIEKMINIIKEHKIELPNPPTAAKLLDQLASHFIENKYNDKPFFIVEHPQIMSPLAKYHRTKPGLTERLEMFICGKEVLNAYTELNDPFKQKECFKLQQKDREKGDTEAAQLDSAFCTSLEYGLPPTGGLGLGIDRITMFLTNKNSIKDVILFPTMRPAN

Measurements from “University of Dundee, Small-Polar-MMV Screening Library” (2021), ChEMBL document CHEMBL3988442.

Results are given as percent effect.
The record does not define 0% and 100%; most values in the screen are far below 50% and negative numbers occur (in some assays of this library far below -100).
Compounds were drawn at random from those tested, without regard to their results.
A dash means the value is not listed here; it may have been measured.

TcHisRS: 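Enzyme assay of histidyl-tRNA synthetase; the read-out is not stated. Target: Histidine-tRNA ligase, Trypanosoma cruzi CL Brener (UniProt Q4DA54). Tested at 30 µM. Higher reads as stronger inhibition (inferred: compounds with an IC50 in retests scored well above the rest). About 69,000 compounds were tested under these conditions; 0.045% (about 31) showed 50% or more at least once.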
MtTrpRS: 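Enzyme assay of tryptophanyl-tRNA synthetase; the read-out is not stated. Target: Tryptophan-tRNA ligase, Mycobacterium tuberculosis (UniProt P9WFT3). Concentration: 10 µM. Higher most likely means stronger inhibition; the record gives no direction and few retests gave an IC50. Of about 65,000 compounds tested this way, about 64 (0.098%) reached 50% or more in at least one test.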
Pks13 thioesterase: 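Enzyme assay of the thioesterase domain of polyketide synthase 13; the read-out is not stated. Target: Polyketide synthase Pks13, Mycobacterium tuberculosis (UniProt I6X8D2). Compounds at 30 µM. Higher reads as stronger inhibition (inferred from which compounds were picked for retests). Size under these conditions: about 67,000 compounds, about 300 of them at 50% or above in at least one test.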
PfKRS1: 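Enzyme assay of the cytosolic lysyl-tRNA synthetase in 384-well plates, read by luminescence. Target: Lysine-tRNA ligase, Plasmodium falciparum 3D7 (UniProt Q8IDJ8). Concentration: 30 µM. Higher reads as stronger inhibition, judged from the few compounds that gave an IC50. About 69,000 compounds were tested under these conditions; 0.071% (about 49) showed 50% or more at least once.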
Toxoplasma: 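Assay of Toxoplasma gondii numbers, read through their beta-galactosidase reporter with a colour substrate. Concentration: 10 µM. The record gives no direction; the compounds picked for IC50 retests had high values, so higher reads as fewer parasites. Of about 67,000 compounds tested this way, about 260 (0.38%) reached 50% or more in at least one test.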

| compound | TcHisRS | MtTrpRS | Pks13 thioesterase | PfKRS1 | Toxoplasma |
|---|---|---|---|---|---|
| `CN(Cc1cnn(C)c1)C(=O)NC1CCN(Cc2ccccn2)CC1` | 2.29% | -3.917% | -8.189% | 5.46% | 1.482% |
| `O=C(NCc1cn2c(n1)CN(CC1CCOCC1)CC2)C1CCC1` | 2.674% | 1.313% | 1.725% | 4.901% | - |
| `CN(CC1CCOC1)c1ccc(Br)cn1` (stereo not drawn) | 1.01% | 1.032% | 0.08595% | -4.013% | 24.05% |
| `CCN(Cc1cnn(CC)c1)Cc1c(Cl)cncc1Cl` | 5.357% | 1.497% | -14.29% | 7.985% | 15.18% |
| `Cc1nc(CCNC(=O)NCc2cccc(N(C)C)n2)cs1` | 2.006% | -6.105% | -0.7109% | -0.4133% | 2.698% |
| `COc1ccccc1OCCCN1C(=O)CCNC1=O` | 7.921% | -6.048% | 8.014% | -5.894% | 9.427% |
| `CCC(C)(CC(=O)OC)NCc1nc(C)no1` (stereo not drawn) | 6.173% | 1.563% | -1.038% | -0.1617% | 9.488% |
| `O=C(NCC(F)(F)F)C1=NOC2(CCCNC2)C1` (stereo not drawn) | 2.732% | -6.04% | -7.954% | 0.7599% | - |
| `Cn1cc(C[C@H]2[C@H](O)CCN2Cc2ccncc2)cn1` | 4.902% | -2.189% | 10.99% | -0.2687% | - |
| `NC(=O)CSc1ccccc1NCc1nc(Cc2ccccc2)no1` | 10.84% | 2.282% | 11.48% | 3.127% | -15.38% |
| `N#Cc1c(CN2CCCC2Cn2cccn2)cn2ccccc12` (stereo not drawn) | 7.292% | 10.44% | -6.474% | -3.623% | 8.785% |
| `Cc1ccc(CN2CC[C@H]3OCC[C@@H](c4nc(C)no4)[C@H]3C2)cc1` | 3.867% | 3.051% | -34.56% | -2.759% | - |
| `Cn1ncc2c(NC3CN4CCC3CC4)nc(-c3ccncc3)nc21` (stereo not drawn) | 4.464% | 1.088% | -15.29% | 6.156% | 26.8% |
| `CN(Cc1nnc(C2CC2)n1C)C1CCN(Cc2ccon2)C1` (stereo not drawn) | 0% | 0.2347% | -1.607% | -2.505% | -0.1723% |
| `CCCSc1ncc(CN(C)CCN2CCCCC2)cn1.O=C(O)CC(O)(CC(=O)O)C(=O)O` | - | - | - | - | -1.127% |
| `COc1ccc(N(c2ccc(OC)cc2)c2ccc(C(=O)O)s2)cc1` | -45.09% | - | 40.09% | 1.819% | -1.247% |
| `Cc1cnc(C(=O)N2Cc3ccccc3OC3(CCOCC3)C2)cn1` | 3.731% | 1.565% | 6.64% | 1.544% | -5.779% |
| `[H][C@@]12CC[C@@](O)(c3ccc(C)cn3)[C@]1([H])CN(Cc1ccc(SC)cc1)C2` | - | - | - | - | 14.14% |
| `COc1cc(C(=O)Nc2c(C)noc2C)ccc1C` | 3.008% | -0.5507% | -28.5% | 3.378% | - |
| `COCC1CN(c2ccc(C)nn2)Cc2cnn(CC3CCOCC3)c21.O=C(O)C(F)(F)F.O=C(O)C(F)(F)F` (stereo not drawn) | - | - | - | - | 11.92% |
| `CC1CCN(S(=O)(=O)c2ccc(C(=O)N3CCSCC3)cc2)CC1` | -4.124% | -5.543% | 7.154% | 2.659% | -1.318% |
| `Cn1cc(CNC2CCOCC2)c(-c2cc3ccccc3o2)n1` | 14.45% | -3.49% | -6.05% | 4.641% | -11.62% |
| `COc1cc(C(C#N)NC(=O)CC2=CCCCC2)cc(OC)c1OC` (stereo not drawn) | 3.175% | -5.202% | -10.56% | 4.713% | -4.532% |
| `Cc1cnn(C2CN(CC(=O)N(C)Cc3cccs3)C2)c1` | 6.863% | 1.505% | -20.82% | 1.591% | -10.29% |
| `O=C(O)C(F)(F)F.O=C(O)C(F)(F)F.[H][C@@]12COC[C@]1([H])[C@@H](OCc1ccccn1)CN2Cc1cccc(C)n1` | - | - | - | - | -12.84% |
| `O[C@@H]1CN(Cc2cc(Cl)cc3cccnc23)C[C@@H]1O` | 0% | -0.8396% | -16.59% | -1.578% | 10.67% |
| `CC(C)C1CC(=O)Nc2c1cnn2Cc1ccco1` (stereo not drawn) | -1.22% | -1.84% | -2.626% | 3.54% | -15.54% |
| `CC(C)C1CN(C(=O)c2ccc(Cl)cn2)CCCN1CC1CC1` (stereo not drawn) | 2.632% | -1.201% | -19.03% | 3.27% | -10.8% |
| `Cn1c(C2CCCCN2C(=O)CN2CCCC2=O)nc2ccccc21` (stereo not drawn) | 5.357% | -6.156% | -3.478% | -5.026% | -1.42% |
| `CSc1ncc(C(=O)N2CCN(c3ccccc3C)CC2C)cn1` (stereo not drawn) | 3.061% | -2.43% | -20.12% | 6.192% | -9.82% |
| `COCCN1CCC2(COCCN(Cc3ccc4c(c3)OCO4)C2)C1.O=C(O)C(F)(F)F.O=C(O)C(F)(F)F` (stereo not drawn) | - | - | - | - | -0.947% |
| `Cc1cncc(C2CCCN(Cc3ccncc3)C2)n1` (stereo not drawn) | -1.099% | - | -22.71% | -1.153% | 1.81% |
| `CC(CC(=O)N1CCCN(Cc2nccn2C)CC1)n1cccc1` (stereo not drawn) | -2.97% | 0.7776% | 7.172% | 4.159% | 9.299% |
| `CC(C)(NS(C)(=O)=O)c1nc(-c2cccc(Cl)c2)no1` | 6.931% | -1.748% | -3.079% | -1.327% | -4.806% |
| `COCCNc1cccc(C2CCCN2)n1` (stereo not drawn) | 9.125% | 0.1569% | -0.5725% | 0.5622% | 6.824% |
| `CN(CCNC(=O)Nc1ccn(C)n1)Cc1ccc(F)cc1` | 2.488% | -2.142% | 3.26% | -3.606% | -5.19% |